Reference: patent US20170209534A1, “Pseudhymenochirins As Agents For Treatment Of Cancer And Microbial Infections” (priority 2014, published 2017)

Key:
Format in all cases: cell-based
Details in all cases: ratio of LC50 for HUVEC cells to LC50 for tumour cells
[1] = tested on: human breast adenocarcinoma MDA-MB-231 cells; assay: Viability assay (CellTiter-Glo, ATP), MDA-MB-231
Description: (§1) For cytotoxicity assay, the effect of the peptides on three different types of cancer cells were analysed, human non-small cell lung adenocarcinoma A549 cells, human breast adenocarcinoma MDA-MB-231 cells and human colorectal adenocarcinoma HT-29 cells. As control, HUVEC cell line was selected.
(§2) A549 cell line was maintained in RPMI 1640 medium containing 2 mM L-glutamine and supplemented with 10% FCS at 37° C. MDA-MB-231 and HT-29 cell lines were maintained in DMEM medium supplemented with 10% FCS at 37° C. The medium for cancer cells were further supplemented with antibiotics, penicillin 50 U/mL and streptomycin […]. HUVEC cells were maintained in EndoGRO MV-VEGF Complete Media Kit at 37° C.
(§3) The cells from each of the four cell lines were seeded individually in a 96-wells plate at a cell density of 5×10^3 cells/well. […]
(§4) The effect of the peptides on the cell viability was determined by the measurement of the concentration of ATP using CellTitre-Glo Luminescent Cell Viability assay. Luminescent signals were measured using a GLOMAX Luminometer system.
(§5) The LC50 value was calculated for both the peptides for individual cell lines by conducting non-linear regression analysis using commercially available software (SPPS version 17.0; SPS Inc, Chicago, Ill., USA). […]

[2] = tested on: human non-small cell lung adenocarcinoma A549 cells; assay: Viability assay (CellTiter-Glo, ATP), A549
[3] = tested on: human colorectal adenocarcinoma HT-29 cells; assay: Viability assay (CellTiter-Glo, ATP), HT-29
Description: as §1, §2, §3, §4, §5

| Sequence | Therapeutic index MDA-231 [1] | Therapeutic index A549 [2] | Therapeutic index HT-29 [3] |
| --- | --- | --- | --- |
| GIFPIFAKLLGKVIKVASSLISKGRTE [Pseudhymenochirin-2Pa, Pseudhymenochirin-2 Pa] | 11.0 | 11.3 | 5.9 |
| IKIPSFFRNILKKVGKEAVSLIAGALKQS [Pseudhymenochirin-1Pb] | 0.8 | 2.2 | 0.6 |

No end group written: not given here.
